Test results as given in article PMC4416881, “Regulation of Active DNA Demethylation by a Methyl-CpG-Binding Domain Protein in Arabidopsis thaliana” (PLoS Genetics, 2015).
No constants are given. Whether binding was seen depends on the method and setting. A result given as binding can be weak or reduced; the word gives no strength. Tags and fused reporters may be left off the sequences shown.

Experiments:
[1] = biological target: N-terminal of IDM1 (yeast two-hybrid fusion) (Arabidopsis thaliana); assay: two-hybrid; pGBK-T7 (BD) and pGAD-T7 (AD) fusions in yeast AH109; growth on medium lacking Leu, Trp, Ade and His
[2] = biological target: C-terminal of IDM1 (yeast two-hybrid fusion) (Arabidopsis thaliana); assay: as above

binding [1] | binding [2] | Binder
binds |  | IDM2 (yeast two-hybrid fusion) (protein, UniProt Q8RWL4 1-349) MSDTMPEIVSPLVAENSQEQEESVLISLDIEEDKLFLLHFIIGTYFGPDLRKQHHRPKQSAFQIQALKNVVVDELSGSLMKRAELERVYYHIIRNVDPSLVMKPKKLREYFNAKRNDSNRDYPLFVDLFPRKLHPETHVRHKFKFIRSIVFINDPDTSCMREECVARFKRLTGLDSFALSLSVDVTKSNGVVAANEVKVEIDESVEPVKEDNAGTCTSGEESDVAAKPEVKSEAHGGLMVGLMDIGECDDAYLFRVSLPGVKRDERYFSCEVEDNGKVLVRGVTTTGGKRVKRYSHVFEMQTRSLCPPGNFSVSFRLPGPVHPHEFSGNFGTDGILEGVVMKNLQKQTV
 | binds | IDL1 (yeast two-hybrid fusion) (protein, UniProt Q9SYQ0 1-463) MSLYSDGLSSDQYFLVNFIMSNYLGPDVYSDNPRCSSSQRLARGLPPYTLMHIGSSSLTVSQLQNLYYNVLRNAKSSLLLHPDMIYMYLKGYLPLEPSGKFPQFTHFFPTNLHPQKRYSPSHEIVKGIVVIDDPAVGFINKEELQRFRCLSRLDDLKIDRVTSLSPRVNLDESRETEQDCSRNGDATANGVVTNEDYNSSGELQETCKRKEGEDAVASCVISEPERLSGDIPESQGMKQDCSRNGESAFSGIVSDQDYYSFVKLPETCKRKNKEEEAVTGHAVSGTSKTPERFRETYKRRRFKNSSKKATNKNGETLMEREKTDKPIPFSSEMKESDAEPSVVTTGTASKETLGSSVGVVDIGVNKVAYFFQVALPGVRKDYGEFSCEIESDGKVILEGSTTRGEKNIKRHSRVFEMNIRKLCPPGPFKLCFNLPGPVDPRLFSPNFRSDGIFEGVIIRHKNS
